## O=C(Nc1ccccc1)c1ccccc1
  logP: 2.49
